PubChem BioAssay AID2685 (National Center for Advancing Translational Sciences (NCATS), 2010)
This is one part of the list. Shown are side measurements of this screen, not its main read-out; they come without a call. Most of these compounds were active or inconclusive in the main read-out, so they are no random draw. Potencies come from curve fits of mixed quality, noted in brackets.

Test: qHTS Assay for Lipid Storage Modulators in Drosophila S3 Cells;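 on cell number change: cells counted by Cell Tracker Red CMTPX staining in the red channel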
Settings: BODIPY lipid droplet fluorescence, 18-24 h; for cell number change: measured here: cell count max response, cells fed with added oleic acid
Summary of the method: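 Drosophila S3 cells got compounds at several concentrations plus oleic acid (400 uM solution). Laser-scanning cytometry with 488 nm excitation read lipid droplets at 500-530 nm and cells at 575-640 nm. Percent activity was relative to 20 uM Triacsin C.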

[1] = measured here: cell number channel AC50, cells fed with added oleic acid
[2] = measured here: lipid fluorescence (Fed channel) AC50, cells fed with added oleic acid

SMILES | cell number change [%] | AC50 [1] | AC50 [2]
CCOC(=O)c1ccc(NC(=S)N(CCN(C)C)Cc2cccs2)cc1 | 76.1 | 2.31 µM [rising, full curve] | 
O=C(COC(=O)c1ccc(Cl)c(S(=O)(=O)N2CCCC2)c1)NC1CCCCC1 | 52.8 |  | 
COc1ccc(-c2ccc(NS(=O)(=O)c3cc([N+](=O)[O-])ccc3C)cc2)nn1 | -11.6 |  | 20.6 µM [rising, single point]
Cc1ccc(S(=O)(=O)N(C)C)cc1NC(=O)COC(=O)c1n[nH]c(=O)c2ccccc12 | 37.4 |  | 
CC(=O)c1sc(NC(=O)CCS(=O)(=O)c2ccc(Cl)cc2)nc1C |  | 2.31 µM [rising, partial curve] | 
COC(CNC(=O)C1CCCN(S(=O)(=O)c2c(C)noc2/C=C/c2cccs2)C1)OC (stereo not given) | -19 |  | 1.84 µM [falling, partial curve]
CC(=O)c1cccc(NC(=O)Cn2cnc(S(=O)(=O)N3CCC(C)CC3)c2)c1 | 21.9 |  | 
CSc1nc2ccccc2n1Cc1cccc([N+](=O)[O-])c1 | -31.5 | 29.1 µM [falling, single point] | 
CS/C(=N\N(C)C(N)=O)c1ccccc1 | -18.2 |  | 0.00517 µM [falling, full curve, poor fit]
COC(=O)/C=C1/N/C(=N\c2nc(C)cc(C)n2)N(c2cccc(C)c2)C1=O | -2.01 |  | 0.184 µM [falling, full curve, poor fit]
O=C(CSc1nnc2c(Cl)cc(Cl)cn12)NC1CCS(=O)(=O)C1 (stereo not given) |  |  | 0.58 µM [rising, full curve, poor fit]
COc1cc(CNCc2ccccn2)ccc1OCc1c(Cl)cccc1Cl | -11.6 |  | 
CCCCC(=O)N1C/C=C\C(c2ccc(OC)cc2)N(Cc2ccc(F)cc2)C(=O)C1 (stereo not given) | 0.955 |  | 29.1 µM [falling, single point]
CCCCCCOc1ccc(OC(=O)c2cccnc2)cc1 | -15.2 |  | 4.11 µM [rising, single point]
O=C(CCn1c(=O)oc2ccccc21)Nc1ccccc1 | 20.2 |  | 25.9 µM [rising, single point]
Cc1cc(C)c(NC(=O)CSc2nnc(-c3ccccn3)n2N)c(Cl)c1 | 13 |  | 0.116 µM [rising, full curve, poor fit]
Cc1ccc(S(=O)(=O)N(C)CC(=O)N2CCN(Cc3ccc4c(c3)OCO4)CC2)cc1 | 13.5 |  | 11.6 µM [falling, single point]
O=C(COC(=O)c1ccc[nH]c1=O)NCCCc1ccccc1 | 19.7 |  | 6.51 µM [falling, single point]
N#CCCN1CCN(S(=O)(=O)c2ccc(S(=O)(=O)NCc3ccccc3)cc2)CC1 | -36.2 | 29.1 µM [falling, single point] | 20.6 µM [falling, single point]
CCOC(=O)[C@@H]1[C@H]2COc3ccc(Br)cc3[C@H]2N2C(=O)N(c3cccc(Cl)c3)C(=O)[C@]12C | 54.2 | 20.6 µM [rising, partial curve] | 

SMILES | cell number change [%] | AC50 [1] | AC50 [2]
CCN1CCN(c2ccc(S(=O)(=O)N3CCOCC3)cc2NC(=O)/C=C/c2ccc(OC)c(OC)c2)CC1 | 70.6 | 20.6 µM [rising, single point] | 
CC1CCC(NC(=O)Cn2cc3c(n2)CCCC3)CC1 (stereo not given) | 18.8 |  | 0.184 µM [falling, full curve]
Cc1ccc(Cl)c(NC(=O)CN2CCN(C=O)CC2)c1 |  |  | 0.58 µM [rising, single point]
COc1ccc([N+](=O)[O-])cc1NC(=O)COC(=O)c1ccccn1 | -46.5 | 0.461 µM [falling, single point] | 
CSc1ccccc1C(=O)C1CCCN(C(=O)c2cc(C(C)C)no2)C1 (stereo not given) |  |  | 0.0259 µM [rising, full curve, poor fit]
CCOc1ccc(/C=C/c2c([N+](=O)[O-])c(=O)n(C)c(=O)n2C)cc1 | -31.7 |  | 
CC1CC(C)CN(c2ncc3c(n2)CC(c2ccccc2Cl)CC3=O)C1 (stereo not given) |  | 4.61 µM [rising, single point] | 6.51 µM [rising, single point]
Cc1cc(C)cc(NC(=O)Cc2ccc(S(=O)(=O)N3CCCC3)s2)c1 | -42 | 23.1 µM [falling, partial curve] | 
COc1ccc(Cl)cc1NC(=O)c1nnn(CC(=O)Nc2ccc3c(c2)OCO3)c1N | 34 |  | 
CCC(C)c1ccc(NC(=S)NCc2cccs2)cc1 (stereo not given) | -35.8 | 0.00461 µM [falling, full curve] | 
Cc1cc(C)c(S(=O)(=O)N2CCOC2CNC(=O)C(=O)NCc2ccncc2)c(C)c1 (stereo not given) | -16.4 |  | 14.6 µM [falling, partial curve, poor fit]
CCN(Cc1ccccc1)S(=O)(=O)c1cc2[nH]c(=O)c(=O)[nH]c2cc1C | -6.92 |  | 0.259 µM [falling, partial curve, poor fit]
O=C(NN1CCOCC1)c1ccccc1 | -11.9 |  | 6.51 µM [rising, single point]
CN(C)CCN(C(=O)/C=C/c1cccs1)c1nc2c(F)cc(F)cc2s1 | -30.6 | 16.4 µM [falling, single point] | 20.6 µM [falling, partial curve]
COc1cc2c(cc1OC)C(c1ccccc1)N(C(=O)CSCC(=O)O)CC2 (stereo not given) |  |  | 0.58 µM [falling, single point]
CC(C)(C)c1ccc(C(=O)Nc2ccc(CN3CCS(=O)(=O)CC3)cc2)cc1 | -31.8 |  | 29.1 µM [falling, single point]
CC1CC(C(F)(F)C(F)(F)F)n2nc(C(=O)O)cc2N1 (stereo not given) | 8.06 | 0.0146 µM [rising, full curve] | 
Cc1snc(S(=O)(=O)Cc2ccccc2Cl)c1C#N | -23.3 |  | 18.4 µM [falling, partial curve]
CCOc1ccc(NC(=O)CCNS(=O)(=O)c2ccc(Br)s2)cc1 | 4.14 | 1.84 µM [rising, single point] | 3.26 µM [rising, partial curve]

By substructure: the compounds so far containing a cyano group
SMILES | cell number change [%] | AC50 [1] | AC50 [2]
N#CCCN1CCN(S(=O)(=O)c2ccc(S(=O)(=O)NCc3ccccc3)cc2)CC1 | -36.2 | 29.1 µM [falling, single point] | 20.6 µM [falling, single point]
Cc1snc(S(=O)(=O)Cc2ccccc2Cl)c1C#N | -23.3 |  | 18.4 µM [falling, partial curve]
